# Experimental data taken from the supplement of paper PMC8728848.
# The other results are listed elsewhere or left out.
# B1: ArathEULS3 TAP (Arabidopsis thaliana) (protein)
# chain: IDENLYFQGGSMDEKTTGWRGGHVVEGLAGELEQLRARLEHHPQGQREPGGGGSLEITSLYKKAGFMEHHHQHHRHHQRDDGEDDRQSFGVPPPHVDAPPQPHGLYQSQPHFDPYAPTPQAPAPYRSETQFEPHAPPPYRSEPYFETPAPPPSFGHVSHVGHQSPNESYPPEHHRYGGYQQPSNSLLESHGDHSGVTHVAHHSSNQPQSSSGVYHKPDENRLPDNLAGLAGRATVKVYSKAEPNYNLTIRDGKVILAPADPSDEAQHWYKDEKYSTKVKDADGHPCFALVNKATGEAMKHSVGATHPVHLIRYVPDKLDESVLWTESKDFGDGYRTIRMVNNTRLNVDAYHGDSKSGGVRDGTTIVLWDWNKGDNQLWKIFPF
# How the values were obtained:
# Experiment in all cases: glycan array binding signal (z-score within array); higher = stronger binding
# Details in all cases: glycan notation: IUPAC condensed, linker removed
# [1] = molecular target: Gal(b1-4)GlcNAc(b1-3)Gal(b1-4)GlcNAc(b1-3)Gal(b1-4)GlcNAc(b1-3)Gal(b1-4)GlcNAc(b1-2)Man(a1-3)[Gal(b1-4)GlcNAc(b1-3)Gal(b1-4)GlcNAc(b1-3)Gal(b1-4)GlcNAc(b1-3)Gal(b1-4)GlcNAc(b1-2)Man(a1-6)]Man(b1-4)GlcNAc(b1-4)[Fuc(a1-6)]GlcNAc
# In short: (§1)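 The binding signal is a Z-score computed within each array and averaged over linkers. Arrays of the same protein sequence at different concentrations or buffers were also averaged together. Data originate from 3228 arrays in the Consortium for Functional Glycomics database, kept only where the protein sequence was available.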
# [2] = molecular target: Gal(b1-4)GlcNAc(b1-3)Gal(b1-4)GlcNAc(b1-3)Gal(b1-4)GlcNAc(b1-3)Gal(b1-4)GlcNAc(b1-2)[Gal(b1-4)GlcNAc(b1-3)Gal(b1-4)GlcNAc(b1-3)Gal(b1-4)GlcNAc(b1-3)Gal(b1-4)GlcNAc(b1-6)]Man(a1-6)[Gal(b1-4)GlcNAc(b1-3)Gal(b1-4)GlcNAc(b1-3)Gal(b1-4)GlcNAc(b1-3)Gal(b1-4)GlcNAc(b1-2)Man(a1-3)]Man(b1-4)GlcNAc(b1-4)[Fuc(a1-6)]GlcNAc
# In short: as §1
# [3] = molecular target: Gal(b1-4)GlcNAc(b1-3)Gal(b1-4)GlcNAc(b1-3)Gal(b1-4)GlcNAc(b1-3)Gal(b1-4)GlcNAc(b1-3)Gal(b1-4)GlcNAc(b1-2)Man(a1-3)[Gal(b1-4)GlcNAc(b1-3)Gal(b1-4)GlcNAc(b1-3)Gal(b1-4)GlcNAc(b1-3)Gal(b1-4)GlcNAc(b1-3)Gal(b1-4)GlcNAc(b1-2)Man(a1-6)]Man(b1-4)GlcNAc(b1-4)GlcNAc
# In short: as §1
# [4] = molecular target: Gal(b1-4)GlcNAc(b1-3)Gal(b1-4)GlcNAc(b1-3)Gal(b1-4)GlcNAc(b1-3)Gal(b1-4)GlcNAc(b1-3)Gal(b1-4)GlcNAc(b1-2)Man(a1-3)[Gal(b1-4)GlcNAc(b1-3)Gal(b1-4)GlcNAc(b1-3)Gal(b1-4)GlcNAc(b1-3)Gal(b1-4)GlcNAc(b1-3)Gal(b1-4)GlcNAc(b1-2)Man(a1-6)]Man(b1-4)GlcNAc(b1-4)[Fuc(a1-6)]GlcNAc
# In short: as §1
# [5] = molecular target: Gal(b1-4)GlcNAc(b1-3)Gal(b1-4)GlcNAc(b1-3)Gal(b1-4)GlcNAc(b1-3)Gal(b1-4)GlcNAc(b1-3)Gal(b1-4)GlcNAc(b1-2)[Gal(b1-4)GlcNAc(b1-3)Gal(b1-4)GlcNAc(b1-3)Gal(b1-4)GlcNAc(b1-3)Gal(b1-4)GlcNAc(b1-3)Gal(b1-4)GlcNAc(b1-6)]Man(a1-6)[Gal(b1-4)GlcNAc(b1-3)Gal(b1-4)GlcNAc(b1-3)Gal(b1-4)GlcNAc(b1-3)Gal(b1-4)GlcNAc(b1-3)Gal(b1-4)GlcNAc(b1-2)Man(a1-3)]Man(b1-4)GlcNAc(b1-4)[Fuc(a1-6)]GlcNAc
# In short: as §1
# [6] = molecular target: Gal(b1-4)GlcNAc(b1-3)Gal(b1-4)GlcNAc(b1-3)Gal(b1-4)GlcNAc(b1-3)Gal(b1-4)GlcNAc(b1-3)Gal(b1-4)GlcNAc(b1-3)Gal(b1-4)GlcNAc(b1-2)Man(a1-3)[Gal(b1-4)GlcNAc(b1-3)Gal(b1-4)GlcNAc(b1-3)Gal(b1-4)GlcNAc(b1-3)Gal(b1-4)GlcNAc(b1-3)Gal(b1-4)GlcNAc(b1-3)Gal(b1-4)GlcNAc(b1-2)Man(a1-6)]Man(b1-4)GlcNAc(b1-4)GlcNAc
# In short: as §1
# [7] = molecular target: Gal(b1-4)GlcNAc(b1-3)Gal(b1-4)GlcNAc(b1-3)GalNAc
# In short: as §1
# [8] = molecular target: Gal(b1-4)GlcNAc(b1-3)Gal(b1-4)GlcNAc(b1-3)[Gal(b1-4)GlcNAc(b1-3)Gal(b1-4)GlcNAc(b1-6)]GalNAc
# In short: as §1
# [9] = molecular target: Gal(b1-4)GlcNAc(b1-3)Gal(b1-4)GlcNAc(b1-6)[Gal(b1-3)]GalNAc
# In short: as §1
# [10] = molecular target: Gal(b1-4)GlcNAc(b1-3)Gal(b1-4)[Fuc(a1-3)]GlcNAc(b1-3)Gal(b1-4)[Fuc(a1-3)]GlcNAc
# In short: as §1
# [11] = molecular target: Gal(b1-4)GlcNAc(b1-3)GalNAc
# In short: as §1
# [12] = molecular target: Gal(b1-4)GlcNAc(b1-3)[Fuc(a1-3)GlcNAc(b1-6)]Gal(b1-4)Glc
# In short: as §1
# [13] = molecular target: Gal(b1-4)GlcNAc(b1-3)[Gal(b1-4)GlcNAc(b1-6)]Gal(b1-4)GlcNAc
# In short: as §1
# [14] = molecular target: Gal(b1-4)GlcNAc(b1-3)[GlcNAc(b1-6)]Gal(b1-4)GlcNAc
# In short: as §1
# [15] = molecular target: Gal(b1-4)GlcNAc(b1-6)Gal(b1-4)GlcNAc
# In short: as §1
# [16] = molecular target: Gal(b1-4)GlcNAc(b1-6)GalNAc
# In short: as §1
# [17] = molecular target: Gal(b1-4)GlcNAc(b1-6)[Gal(b1-3)]GalNAc
# In short: as §1
# [18] = molecular target: Gal(b1-4)GlcNAc(b1-6)[Gal(b1-4)GlcNAc(b1-3)]GalNAc
# In short: as §1
# Gal(b1-4)GlcNAc6P = molecular target: Gal(b1-4)GlcNAc6P
# In short: as §1
# Gal(b1-6)Gal = molecular target: Gal(b1-6)Gal
# In short: as §1
# Gal3S(b1-3)GalNAc = molecular target: Gal3S(b1-3)GalNAc
# In short: as §1
# Gal3S(b1-3)GlcNAc = molecular target: Gal3S(b1-3)GlcNAc
# In short: as §1
# [19] = molecular target: Gal3S(b1-3)[Fuc(a1-4)]GlcNAc
# In short: as §1
# Gal3S(b1-4)Glc = molecular target: Gal3S(b1-4)Glc
# In short: as §1
# Gal3S(b1-4)Glc6S = molecular target: Gal3S(b1-4)Glc6S
# In short: as §1
# Gal3S(b1-4)GlcNAc = molecular target: Gal3S(b1-4)GlcNAc
# In short: as §1
# [20] = molecular target: Gal3S(b1-4)[Fuc(a1-3)]Glc6S
# In short: as §1
# [21] = molecular target: Gal3S(b1-4)[Fuc(a1-3)]GlcNAc
# In short: as §1
# [22] = molecular target: Gal3S(b1-4)[Fuc(a1-3)]GlcNAc6S
# In short: as §1
# Gal3S4S(b1-4)GlcNAc = molecular target: Gal3S4S(b1-4)GlcNAc
# In short: as §1
# Gal3S6S(b1-4)GlcNAc = molecular target: Gal3S6S(b1-4)GlcNAc
# In short: as §1
# Gal3S6S(b1-4)GlcNAc6S = molecular target: Gal3S6S(b1-4)GlcNAc6S
# In short: as §1
# Gal4S(b1-4)GlcNAc = molecular target: Gal4S(b1-4)GlcNAc
# In short: as §1
# Gal4S6S(b1-4)GlcNAc = molecular target: Gal4S6S(b1-4)GlcNAc
# In short: as §1
# Gal6P(b1-4)GlcNAc = molecular target: Gal6P(b1-4)GlcNAc
# In short: as §1
# Gal6S(b1-3)GlcNAc = molecular target: Gal6S(b1-3)GlcNAc
# In short: as §1
# Gal6S(b1-3)GlcNAc6S = molecular target: Gal6S(b1-3)GlcNAc6S
# In short: as §1
# Gal6S(b1-4)Glc = molecular target: Gal6S(b1-4)Glc
# In short: as §1
binder,measurement,setting,value
B1,glycan array binding signal (z-score),[1],1.27
same,glycan array binding signal (z-score),[2],-0.314
same,glycan array binding signal (z-score),[3],1.57
same,glycan array binding signal (z-score),[4],0.214
same,glycan array binding signal (z-score),[5],0.779
same,glycan array binding signal (z-score),[6],-0.5
same,glycan array binding signal (z-score),[7],0.308
same,glycan array binding signal (z-score),[8],0.844
same,glycan array binding signal (z-score),[9],0.613
same,glycan array binding signal (z-score),[10],0.668
same,glycan array binding signal (z-score),[11],-0.612
same,glycan array binding signal (z-score),[12],-0.792
same,glycan array binding signal (z-score),[13],0.914
same,glycan array binding signal (z-score),[14],-1.21
same,glycan array binding signal (z-score),[15],1.18
same,glycan array binding signal (z-score),[16],1.1
same,glycan array binding signal (z-score),[17],0.965
same,glycan array binding signal (z-score),[18],0.619
same,glycan array binding signal (z-score),Gal(b1-4)GlcNAc6P,-0.489
same,glycan array binding signal (z-score),Gal(b1-6)Gal,-1.09
same,glycan array binding signal (z-score),Gal3S(b1-3)GalNAc,-0.675
same,glycan array binding signal (z-score),Gal3S(b1-3)GlcNAc,-0.162
same,glycan array binding signal (z-score),[19],0.529
same,glycan array binding signal (z-score),Gal3S(b1-4)Glc,0.159
same,glycan array binding signal (z-score),Gal3S(b1-4)Glc6S,-0.285
same,glycan array binding signal (z-score),Gal3S(b1-4)GlcNAc,-0.378
same,glycan array binding signal (z-score),[20],1.22
same,glycan array binding signal (z-score),[21],1.59
same,glycan array binding signal (z-score),[22],0.741
same,glycan array binding signal (z-score),Gal3S4S(b1-4)GlcNAc,4.33
same,glycan array binding signal (z-score),Gal3S6S(b1-4)GlcNAc,0.132
same,glycan array binding signal (z-score),Gal3S6S(b1-4)GlcNAc6S,-0.775
same,glycan array binding signal (z-score),Gal4S(b1-4)GlcNAc,0.737
same,glycan array binding signal (z-score),Gal4S6S(b1-4)GlcNAc,-1.26
same,glycan array binding signal (z-score),Gal6P(b1-4)GlcNAc,1.8
same,glycan array binding signal (z-score),Gal6S(b1-3)GlcNAc,0.277
same,glycan array binding signal (z-score),Gal6S(b1-3)GlcNAc6S,-0.581
same,glycan array binding signal (z-score),Gal6S(b1-4)Glc,0.765

# Reformatted tab-delimited: entries from further up.
binder	measurement	setting	value
B1	glycan array binding signal (z-score)	[1]	1.27
same	glycan array binding signal (z-score)	Gal3S4S(b1-4)GlcNAc	4.33
